Measurements published in publication PMC7917804.
Positions count from the first letter of the chain named. No constants are given. Whether binding was seen depends on the method and setting. In cells and extracts the contact can be indirect. Some entries that bind do so weakly or less than the wild type. For some of these results: Tags and fused reporters may be left off the sequences shown.

The chains behind the UniProt entries cited, without tags or fusion partners.
UniProt A5YKK6: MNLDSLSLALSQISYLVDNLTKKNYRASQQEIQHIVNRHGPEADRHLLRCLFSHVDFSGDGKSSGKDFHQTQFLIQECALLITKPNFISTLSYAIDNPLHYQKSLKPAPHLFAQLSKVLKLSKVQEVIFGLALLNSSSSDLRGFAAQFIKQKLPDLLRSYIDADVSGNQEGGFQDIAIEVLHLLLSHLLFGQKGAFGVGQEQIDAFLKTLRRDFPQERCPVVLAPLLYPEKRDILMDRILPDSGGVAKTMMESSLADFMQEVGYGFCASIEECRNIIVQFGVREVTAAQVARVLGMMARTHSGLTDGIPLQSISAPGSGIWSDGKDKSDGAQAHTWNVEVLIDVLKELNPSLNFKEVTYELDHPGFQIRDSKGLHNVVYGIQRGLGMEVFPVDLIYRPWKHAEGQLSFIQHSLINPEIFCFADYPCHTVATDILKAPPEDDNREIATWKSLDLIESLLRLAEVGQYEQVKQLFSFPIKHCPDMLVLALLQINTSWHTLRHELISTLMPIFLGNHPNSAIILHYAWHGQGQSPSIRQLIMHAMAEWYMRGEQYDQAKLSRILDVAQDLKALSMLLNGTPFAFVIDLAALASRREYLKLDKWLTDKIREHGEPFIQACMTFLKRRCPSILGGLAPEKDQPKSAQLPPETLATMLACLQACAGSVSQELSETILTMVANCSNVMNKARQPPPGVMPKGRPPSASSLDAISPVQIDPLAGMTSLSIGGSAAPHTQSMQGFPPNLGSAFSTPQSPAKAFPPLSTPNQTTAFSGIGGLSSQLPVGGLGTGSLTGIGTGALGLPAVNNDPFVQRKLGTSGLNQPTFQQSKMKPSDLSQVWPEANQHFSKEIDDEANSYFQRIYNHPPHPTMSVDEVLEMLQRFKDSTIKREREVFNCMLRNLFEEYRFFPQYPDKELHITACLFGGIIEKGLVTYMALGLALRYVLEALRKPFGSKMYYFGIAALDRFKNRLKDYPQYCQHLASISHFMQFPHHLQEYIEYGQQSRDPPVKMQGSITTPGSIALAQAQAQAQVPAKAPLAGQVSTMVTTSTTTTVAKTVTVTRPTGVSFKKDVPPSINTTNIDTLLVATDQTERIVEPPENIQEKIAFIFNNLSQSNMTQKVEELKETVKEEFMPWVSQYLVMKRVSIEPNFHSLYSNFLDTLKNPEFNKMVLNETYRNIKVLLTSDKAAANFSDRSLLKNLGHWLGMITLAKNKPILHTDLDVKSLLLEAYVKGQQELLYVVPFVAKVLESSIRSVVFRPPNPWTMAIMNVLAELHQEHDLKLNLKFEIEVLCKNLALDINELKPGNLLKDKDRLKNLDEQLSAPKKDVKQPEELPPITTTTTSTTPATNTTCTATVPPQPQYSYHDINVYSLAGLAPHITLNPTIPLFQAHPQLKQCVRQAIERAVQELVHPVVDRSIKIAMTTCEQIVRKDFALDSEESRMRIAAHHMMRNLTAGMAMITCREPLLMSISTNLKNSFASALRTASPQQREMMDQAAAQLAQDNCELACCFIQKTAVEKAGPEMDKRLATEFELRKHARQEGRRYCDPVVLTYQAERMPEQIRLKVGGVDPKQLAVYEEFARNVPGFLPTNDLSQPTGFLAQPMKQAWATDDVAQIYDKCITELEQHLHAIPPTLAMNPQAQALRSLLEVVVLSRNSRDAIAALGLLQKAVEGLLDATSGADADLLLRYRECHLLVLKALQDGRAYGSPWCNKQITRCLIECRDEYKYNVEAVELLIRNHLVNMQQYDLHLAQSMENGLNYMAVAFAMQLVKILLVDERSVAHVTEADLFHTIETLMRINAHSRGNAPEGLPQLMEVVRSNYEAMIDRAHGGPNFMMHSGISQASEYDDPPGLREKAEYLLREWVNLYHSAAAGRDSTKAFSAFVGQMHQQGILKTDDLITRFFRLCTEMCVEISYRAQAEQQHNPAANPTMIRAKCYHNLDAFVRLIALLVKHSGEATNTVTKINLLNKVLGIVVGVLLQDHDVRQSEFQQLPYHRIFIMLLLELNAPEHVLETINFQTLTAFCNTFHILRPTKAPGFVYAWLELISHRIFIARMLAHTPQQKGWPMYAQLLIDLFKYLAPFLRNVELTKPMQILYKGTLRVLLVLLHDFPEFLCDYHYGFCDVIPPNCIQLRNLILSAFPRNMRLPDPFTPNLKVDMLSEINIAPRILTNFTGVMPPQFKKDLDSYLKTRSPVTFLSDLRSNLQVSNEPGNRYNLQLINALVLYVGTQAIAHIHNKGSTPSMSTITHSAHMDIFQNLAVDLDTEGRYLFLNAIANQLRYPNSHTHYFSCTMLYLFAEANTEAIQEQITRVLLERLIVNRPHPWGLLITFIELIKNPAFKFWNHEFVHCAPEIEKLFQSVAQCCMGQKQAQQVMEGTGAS
UniProt Q92600: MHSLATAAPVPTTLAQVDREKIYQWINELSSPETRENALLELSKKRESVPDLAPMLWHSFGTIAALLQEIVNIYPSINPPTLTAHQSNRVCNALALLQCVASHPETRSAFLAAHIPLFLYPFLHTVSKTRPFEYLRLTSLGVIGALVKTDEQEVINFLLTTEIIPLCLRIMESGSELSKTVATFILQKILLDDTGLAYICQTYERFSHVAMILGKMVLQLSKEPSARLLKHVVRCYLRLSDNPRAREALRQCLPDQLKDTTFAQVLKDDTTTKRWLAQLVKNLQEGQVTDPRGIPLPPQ

Tests used:
Test in all cases: co-IP; lysates of HeLa cells expressing FHS-tagged TNRC6A-SD fragments (collected 24 h after transfection) or full-length TNRC6A (36 h), anti-FLAG antibody beads 2 h at 4 °C, lysis buffer with 140 mM NaCl, wash buffer with 300 mM NaCl and 0.5% NP40; endogenous CNOT1, CNOT9 and PABP detected by Western …
[1] = molecular target: T1, FLAG-HA-SBP (FHS)-tagged TNRC6A-SD-WT (human) (UniProt Q8NDV7)
T1 sequence: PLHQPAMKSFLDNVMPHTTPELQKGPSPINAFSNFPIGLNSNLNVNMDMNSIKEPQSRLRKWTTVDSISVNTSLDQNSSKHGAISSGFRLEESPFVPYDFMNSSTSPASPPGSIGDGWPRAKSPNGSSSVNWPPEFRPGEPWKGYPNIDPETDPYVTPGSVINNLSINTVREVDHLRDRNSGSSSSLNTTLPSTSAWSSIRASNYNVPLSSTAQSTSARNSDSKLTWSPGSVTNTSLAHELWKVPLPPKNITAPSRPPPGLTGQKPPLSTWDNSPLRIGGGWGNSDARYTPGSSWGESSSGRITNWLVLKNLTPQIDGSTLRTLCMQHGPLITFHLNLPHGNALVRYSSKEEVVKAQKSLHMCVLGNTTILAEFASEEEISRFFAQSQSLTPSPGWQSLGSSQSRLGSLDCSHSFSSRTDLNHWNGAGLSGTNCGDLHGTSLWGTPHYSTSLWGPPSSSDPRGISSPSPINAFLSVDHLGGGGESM

[2] = molecular target: T2, FHS-TNRC6A-SD-S1332D/S1346D (human) (UniProt Q8NDV7)
T2 sequence: T1 sequence with S109D, S123D

[3] = molecular target: FHS-FL-TNRC6A-S1616A/S1691A (human) (UniProt Q8NDV7)
[4] = molecular target: T3, FHS-TNRC6A-SD-S1616D/S1691D (human) (UniProt Q8NDV7)
T3 sequence: T1 sequence with S393D, S468D

[5] = molecular target: T4, FHS-TNRC6A-SD-S1332A/S1346A (human) (UniProt Q8NDV7)
T4 sequence: T1 sequence with S109A, S123A

Measured: binding

CNOT1 (from UniProt A5YKK6 1-2376)
binds: all assays above

CNOT9 (from UniProt Q92600 1-299)
binds: all assays above
